Laboratory results: the supplement of paper PMC12819154, “High-throughput peptide-centric local stability assay extends protein–ligand identification to membrane proteins, tissues and bacteria” (Nature Structural & Molecular Biology, 2025)
This is one part of the list. Small differences around the control level are noise.

By UniProt entry, the sequences of proteins in these tests, tags left out. Where a name states a change or a piece, a line headed by the entry shows the natural chain unless it says otherwise.
UniProt Q3TC46: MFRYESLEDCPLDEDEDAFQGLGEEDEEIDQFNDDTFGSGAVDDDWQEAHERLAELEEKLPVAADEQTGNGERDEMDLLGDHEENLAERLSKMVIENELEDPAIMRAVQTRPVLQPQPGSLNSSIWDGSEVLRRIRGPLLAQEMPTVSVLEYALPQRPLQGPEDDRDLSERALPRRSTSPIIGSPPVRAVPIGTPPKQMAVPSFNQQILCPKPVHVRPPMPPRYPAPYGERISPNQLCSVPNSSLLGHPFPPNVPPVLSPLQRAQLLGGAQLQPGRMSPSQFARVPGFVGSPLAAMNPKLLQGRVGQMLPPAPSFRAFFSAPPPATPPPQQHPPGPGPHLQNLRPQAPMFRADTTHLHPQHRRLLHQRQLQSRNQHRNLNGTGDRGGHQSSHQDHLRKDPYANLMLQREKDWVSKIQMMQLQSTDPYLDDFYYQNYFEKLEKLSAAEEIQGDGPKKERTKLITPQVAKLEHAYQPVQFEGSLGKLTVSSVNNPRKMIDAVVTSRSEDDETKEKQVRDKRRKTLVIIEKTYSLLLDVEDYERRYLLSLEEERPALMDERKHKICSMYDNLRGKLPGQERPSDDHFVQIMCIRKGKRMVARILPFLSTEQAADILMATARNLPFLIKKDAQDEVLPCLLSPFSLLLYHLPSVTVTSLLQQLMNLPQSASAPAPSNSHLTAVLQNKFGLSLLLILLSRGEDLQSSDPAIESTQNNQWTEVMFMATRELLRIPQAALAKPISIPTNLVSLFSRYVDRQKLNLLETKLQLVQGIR
UniProt Q149F3, whole entry: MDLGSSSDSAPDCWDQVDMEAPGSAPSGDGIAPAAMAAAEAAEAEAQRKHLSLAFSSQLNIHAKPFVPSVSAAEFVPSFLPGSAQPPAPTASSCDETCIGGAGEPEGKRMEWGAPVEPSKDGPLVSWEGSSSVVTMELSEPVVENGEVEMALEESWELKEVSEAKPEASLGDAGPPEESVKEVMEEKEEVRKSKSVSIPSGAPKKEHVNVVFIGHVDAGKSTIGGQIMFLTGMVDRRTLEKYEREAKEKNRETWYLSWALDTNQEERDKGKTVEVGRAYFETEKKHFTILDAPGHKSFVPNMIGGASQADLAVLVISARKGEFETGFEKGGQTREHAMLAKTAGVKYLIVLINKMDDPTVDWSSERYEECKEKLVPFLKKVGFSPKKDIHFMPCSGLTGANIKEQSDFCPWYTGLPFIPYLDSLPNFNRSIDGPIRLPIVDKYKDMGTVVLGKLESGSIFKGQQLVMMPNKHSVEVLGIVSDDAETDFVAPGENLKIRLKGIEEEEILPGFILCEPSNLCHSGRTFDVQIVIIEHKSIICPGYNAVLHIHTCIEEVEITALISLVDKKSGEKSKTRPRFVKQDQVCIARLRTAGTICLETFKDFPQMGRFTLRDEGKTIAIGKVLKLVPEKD
UniProt Q04519: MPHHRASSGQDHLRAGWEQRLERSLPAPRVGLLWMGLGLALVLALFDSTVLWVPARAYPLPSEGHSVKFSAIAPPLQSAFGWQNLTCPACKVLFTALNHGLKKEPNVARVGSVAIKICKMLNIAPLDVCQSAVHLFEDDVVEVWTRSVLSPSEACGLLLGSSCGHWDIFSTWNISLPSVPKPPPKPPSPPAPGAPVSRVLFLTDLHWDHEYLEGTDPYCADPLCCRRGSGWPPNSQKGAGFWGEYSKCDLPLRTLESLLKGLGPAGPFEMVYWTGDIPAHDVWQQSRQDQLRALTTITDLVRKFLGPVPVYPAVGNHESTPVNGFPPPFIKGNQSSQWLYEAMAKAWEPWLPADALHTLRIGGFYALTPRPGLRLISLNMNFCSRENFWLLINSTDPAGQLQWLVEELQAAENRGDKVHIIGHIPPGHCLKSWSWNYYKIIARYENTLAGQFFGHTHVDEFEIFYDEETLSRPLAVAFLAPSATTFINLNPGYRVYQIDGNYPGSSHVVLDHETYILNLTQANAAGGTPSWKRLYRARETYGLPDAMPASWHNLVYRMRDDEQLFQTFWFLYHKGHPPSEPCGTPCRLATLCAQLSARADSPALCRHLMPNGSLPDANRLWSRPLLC
UniProt Q3TXT3: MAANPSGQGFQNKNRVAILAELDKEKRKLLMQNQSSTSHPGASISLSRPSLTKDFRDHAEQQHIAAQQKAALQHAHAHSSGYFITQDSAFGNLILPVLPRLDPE
UniProt Q3U1T3: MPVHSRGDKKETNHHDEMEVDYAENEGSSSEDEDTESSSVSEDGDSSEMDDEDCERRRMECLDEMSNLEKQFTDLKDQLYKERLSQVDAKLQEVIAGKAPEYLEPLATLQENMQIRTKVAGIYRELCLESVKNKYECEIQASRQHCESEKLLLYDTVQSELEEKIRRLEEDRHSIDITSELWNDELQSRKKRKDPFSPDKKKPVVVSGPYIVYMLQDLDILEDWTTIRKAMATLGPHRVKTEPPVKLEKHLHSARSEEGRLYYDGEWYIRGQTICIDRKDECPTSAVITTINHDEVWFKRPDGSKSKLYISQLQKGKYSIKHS
UniProt Q3THK3, whole entry: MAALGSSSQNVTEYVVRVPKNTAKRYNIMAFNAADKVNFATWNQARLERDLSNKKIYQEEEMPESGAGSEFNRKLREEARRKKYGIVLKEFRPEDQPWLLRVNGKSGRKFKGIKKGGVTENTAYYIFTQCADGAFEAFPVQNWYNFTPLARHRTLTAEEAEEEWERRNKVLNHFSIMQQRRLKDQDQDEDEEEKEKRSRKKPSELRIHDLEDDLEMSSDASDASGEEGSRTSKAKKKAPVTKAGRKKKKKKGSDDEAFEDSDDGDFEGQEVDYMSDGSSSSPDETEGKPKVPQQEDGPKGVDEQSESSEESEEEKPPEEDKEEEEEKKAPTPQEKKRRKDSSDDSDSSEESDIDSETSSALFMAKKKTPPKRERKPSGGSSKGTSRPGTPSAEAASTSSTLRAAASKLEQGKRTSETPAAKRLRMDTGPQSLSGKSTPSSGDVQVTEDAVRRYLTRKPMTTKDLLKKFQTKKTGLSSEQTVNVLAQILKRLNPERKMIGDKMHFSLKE
UniProt Q3U276: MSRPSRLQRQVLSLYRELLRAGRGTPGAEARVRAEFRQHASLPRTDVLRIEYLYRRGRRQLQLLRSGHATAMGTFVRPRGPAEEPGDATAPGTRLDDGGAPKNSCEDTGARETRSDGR
UniProt Q3TAP4: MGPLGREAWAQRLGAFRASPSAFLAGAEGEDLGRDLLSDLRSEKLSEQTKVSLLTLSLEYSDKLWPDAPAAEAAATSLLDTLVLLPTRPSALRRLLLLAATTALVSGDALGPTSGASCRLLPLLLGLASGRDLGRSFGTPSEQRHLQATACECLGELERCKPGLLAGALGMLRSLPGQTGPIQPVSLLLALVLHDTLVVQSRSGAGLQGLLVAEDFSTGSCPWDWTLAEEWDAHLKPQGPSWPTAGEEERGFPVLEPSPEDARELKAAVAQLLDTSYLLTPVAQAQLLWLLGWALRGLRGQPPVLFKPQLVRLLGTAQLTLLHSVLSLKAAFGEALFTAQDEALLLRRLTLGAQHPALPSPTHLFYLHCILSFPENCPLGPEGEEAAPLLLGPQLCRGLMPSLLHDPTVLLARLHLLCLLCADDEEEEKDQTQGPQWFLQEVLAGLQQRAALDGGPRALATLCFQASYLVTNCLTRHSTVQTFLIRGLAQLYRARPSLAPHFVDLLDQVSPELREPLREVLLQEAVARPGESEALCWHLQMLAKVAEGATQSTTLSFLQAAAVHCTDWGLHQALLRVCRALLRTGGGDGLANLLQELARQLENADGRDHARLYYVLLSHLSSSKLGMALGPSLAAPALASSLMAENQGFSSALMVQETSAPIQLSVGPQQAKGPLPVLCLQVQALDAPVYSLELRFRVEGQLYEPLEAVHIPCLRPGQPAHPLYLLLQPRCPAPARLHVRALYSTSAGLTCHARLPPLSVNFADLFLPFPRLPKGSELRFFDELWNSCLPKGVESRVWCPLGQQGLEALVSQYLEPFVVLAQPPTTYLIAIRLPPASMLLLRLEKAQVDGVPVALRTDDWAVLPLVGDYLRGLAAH
UniProt Q03173: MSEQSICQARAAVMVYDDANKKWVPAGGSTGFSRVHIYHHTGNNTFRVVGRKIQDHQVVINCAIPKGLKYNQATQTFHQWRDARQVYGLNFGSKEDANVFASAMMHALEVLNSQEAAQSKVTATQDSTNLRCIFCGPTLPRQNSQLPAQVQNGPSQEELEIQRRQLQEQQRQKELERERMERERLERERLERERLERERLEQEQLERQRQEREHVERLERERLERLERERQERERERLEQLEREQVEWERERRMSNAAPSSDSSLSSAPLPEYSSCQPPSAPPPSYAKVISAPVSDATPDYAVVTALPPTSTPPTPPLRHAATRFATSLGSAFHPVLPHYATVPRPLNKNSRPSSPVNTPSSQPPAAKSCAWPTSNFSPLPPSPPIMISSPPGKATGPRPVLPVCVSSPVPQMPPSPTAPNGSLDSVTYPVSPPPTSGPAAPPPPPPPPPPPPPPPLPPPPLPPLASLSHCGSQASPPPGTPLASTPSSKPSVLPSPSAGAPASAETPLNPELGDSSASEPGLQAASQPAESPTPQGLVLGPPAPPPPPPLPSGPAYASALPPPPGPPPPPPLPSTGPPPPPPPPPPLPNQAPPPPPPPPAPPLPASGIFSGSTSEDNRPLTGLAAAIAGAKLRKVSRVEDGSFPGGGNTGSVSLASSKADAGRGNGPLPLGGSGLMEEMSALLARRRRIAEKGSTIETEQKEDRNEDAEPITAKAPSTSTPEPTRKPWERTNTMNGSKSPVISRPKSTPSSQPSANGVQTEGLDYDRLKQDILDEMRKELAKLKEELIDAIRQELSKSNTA
UniProt Q3B7Z2, whole entry: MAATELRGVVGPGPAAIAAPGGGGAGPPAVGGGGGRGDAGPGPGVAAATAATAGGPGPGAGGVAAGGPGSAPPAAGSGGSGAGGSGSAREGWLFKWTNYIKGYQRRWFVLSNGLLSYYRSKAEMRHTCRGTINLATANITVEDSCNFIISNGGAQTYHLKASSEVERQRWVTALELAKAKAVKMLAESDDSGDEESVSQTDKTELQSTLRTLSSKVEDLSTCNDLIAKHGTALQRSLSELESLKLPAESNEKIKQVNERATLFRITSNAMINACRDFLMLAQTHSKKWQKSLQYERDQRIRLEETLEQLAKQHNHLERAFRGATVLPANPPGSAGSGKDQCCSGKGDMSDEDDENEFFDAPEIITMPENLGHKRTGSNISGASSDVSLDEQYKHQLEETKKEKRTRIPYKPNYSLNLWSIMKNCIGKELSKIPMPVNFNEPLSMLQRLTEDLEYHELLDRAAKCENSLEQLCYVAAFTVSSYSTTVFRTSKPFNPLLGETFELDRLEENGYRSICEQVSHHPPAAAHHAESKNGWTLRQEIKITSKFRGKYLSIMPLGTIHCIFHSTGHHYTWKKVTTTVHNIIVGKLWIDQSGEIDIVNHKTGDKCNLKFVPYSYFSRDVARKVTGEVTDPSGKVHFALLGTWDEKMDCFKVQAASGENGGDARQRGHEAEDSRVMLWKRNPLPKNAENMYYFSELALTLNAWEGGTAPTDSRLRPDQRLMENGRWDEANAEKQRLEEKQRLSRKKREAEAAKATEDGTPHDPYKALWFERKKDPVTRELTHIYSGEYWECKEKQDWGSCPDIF
UniProt Q08122: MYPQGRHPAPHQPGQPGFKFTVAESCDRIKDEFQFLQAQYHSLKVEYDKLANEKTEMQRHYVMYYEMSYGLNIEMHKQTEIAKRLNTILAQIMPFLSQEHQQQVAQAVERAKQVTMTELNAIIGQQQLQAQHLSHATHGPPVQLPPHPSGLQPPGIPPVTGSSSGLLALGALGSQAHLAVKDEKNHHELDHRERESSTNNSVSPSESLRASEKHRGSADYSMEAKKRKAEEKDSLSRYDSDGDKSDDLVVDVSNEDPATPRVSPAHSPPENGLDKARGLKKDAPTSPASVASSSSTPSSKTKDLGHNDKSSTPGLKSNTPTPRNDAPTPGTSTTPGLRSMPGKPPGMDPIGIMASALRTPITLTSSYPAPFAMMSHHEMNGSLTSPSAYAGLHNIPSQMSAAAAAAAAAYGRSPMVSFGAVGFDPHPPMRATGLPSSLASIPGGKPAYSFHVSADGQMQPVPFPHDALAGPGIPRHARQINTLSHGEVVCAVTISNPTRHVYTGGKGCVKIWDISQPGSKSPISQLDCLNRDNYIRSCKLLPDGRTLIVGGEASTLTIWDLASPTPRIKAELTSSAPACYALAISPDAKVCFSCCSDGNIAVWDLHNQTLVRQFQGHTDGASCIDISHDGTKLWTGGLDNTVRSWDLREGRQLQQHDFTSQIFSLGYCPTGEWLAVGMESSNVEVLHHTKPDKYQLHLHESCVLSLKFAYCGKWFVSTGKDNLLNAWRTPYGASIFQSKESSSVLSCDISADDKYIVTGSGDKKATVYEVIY

Compound: CN[C@@H]1C[C@H]2O[C@@](C)([C@@H]1OC)n1c3ccccc3c3c4c(c5c6ccccc6n2c5c31)C(=O)NC4 [staurosporine]
Test: log2 fold change of tryptic peptide abundance, ligand vs vehicle (limited proteolysis) (log2 ratio); higher = more trypsin-susceptible (destabilized)
Conditions: ligand concentration: 20 uM; sample: mouse liver crude lysate; replicate design: treated separately

Target	log2 fold change
UniProt Q3TC46 (peptide sequence: YLLSLEEERPALMDER, peptide start residue: 543)	0.364
UniProt Q3U1V6 (peptide sequence: LQYIITSVLK, peptide start residue: 326)	-0.235
UniProt Q32NY4 (peptide sequence: IPVYEEER, peptide start residue: 355)	-0.984
UniProt Q08509 (peptide sequence: ADPPYTHTIQK, peptide start residue: 597)	-0.17
UniProt Q3TWF6 (peptide sequence: KVIPTTCTYSR, peptide start residue: 335)	-0.899
UniProt Q3HNM7 (peptide sequence: LCRDPDVAQEAVR, peptide start residue: 497)	-0.426
UniProt Q3U0D9 (peptide sequence: DTAQILLLR, peptide start residue: 211)	0.158
UniProt Q149F3 (peptide sequence: EKLVPFLKK, peptide start residue: 376)	0.587
UniProt Q05AH6 (peptide sequence: GTLDLQVIR, peptide start residue: 319)	0.542
UniProt Q06770 (peptide sequence: LKDSFLADTK, peptide start residue: 132)	0.0836
UniProt Q3TY92 (peptide sequence: QDVTLEPSPTTR, peptide start residue: 968)	-0.0187
UniProt Q05921 (peptide sequence: SLHSMTRPMIGK, peptide start residue: 348)	-0.618
UniProt Q04447 (peptide sequence: GIWHNDNK, peptide start residue: 216)	0.274
UniProt Q04519 (peptide sequence: VLFTALNHGLK, peptide start residue: 92)	0.451
UniProt Q3TCV3 (peptide sequence: RSTMYVR, peptide start residue: 568)	-0.0862
UniProt Q3TXT3 (peptide sequence: LLMQNQSSTSHPGASISLSRPSLTK, peptide start residue: 29)	-0.451

3 records picked at random from those above, as already listed:
Target	log2 fold change
UniProt Q32NY4 (peptide sequence: IPVYEEER, peptide start residue: 355)	-0.984
UniProt Q3U0D9 (peptide sequence: DTAQILLLR, peptide start residue: 211)	0.158
UniProt Q3TC46 (peptide sequence: YLLSLEEERPALMDER, peptide start residue: 543)	0.364

Next results follow:

Target	log2 fold change
UniProt Q3U1T3 (peptide sequence: VKTEPPVKLEK, peptide start residue: 239)	-0.251
UniProt Q03172 (peptide sequence: QLPSFVLPVPQKR, peptide start residue: 1616)	-0.235
UniProt Q3THK3 (peptide sequence: KTGLSSEQTVNVLAQILK, peptide start residue: 472)	0.351
UniProt Q3TVI4 (peptide sequence: AHGEFQQR, peptide start residue: 183)	0.333
UniProt Q03267 (peptide sequence: SNHSAQDAVDNLLLLSK, peptide start residue: 357)	0.406
UniProt Q3U276 (peptide sequence: SGHATAMGTFVRPR, peptide start residue: 66)	-0.0713
UniProt Q04857 (peptide sequence: LSIIATDHTYRR, peptide start residue: 199)	0.355
UniProt Q3TKT4 (peptide sequence: LTQVLNTHYVAPR, peptide start residue: 893)	0.361
UniProt Q3TAP4 (peptide sequence: GQPPVLFKPQLVR, peptide start residue: 300)	0.107
UniProt Q3TEA8 (peptide sequence: YPSLGLER, peptide start residue: 193)	0.318
UniProt Q3TZ89 (peptide sequence: AHSPCAQASK, peptide start residue: 507)	-0.699
UniProt Q03173 (peptide sequence: APSTSTPEPTR, peptide start residue: 716)	0.486
UniProt Q3B7Z2 (peptide sequence: ITSNAMINACRDFLMLAQTHSK, peptide start residue: 265)	-0.441
UniProt Q08122 (peptide sequence: FTVAESCDR, peptide start residue: 20)	-0.666
UniProt Q3TC72 (peptide sequence: ALATQLPVIPR, peptide start residue: 83)	0.0576
